In patent EP1129354B1, “A METHOD FOR DETERMINING A MIMOTOPE SEQUENCE” (PEPSCAN SYSTEMS B.V., priority 1998, dated 2000):
Part of at least one peptide drawing is inferred or uncertain, most often the ends. Residues, ends and D or L forms follow the SMILES beside them.

Tested on: antibody 26/9
Test: Binding affinity in solution compared with the native epitope peptide (Example-1)
Settings: relative to native epitope peptide […]

Compound: CSCC[C@H](NC(=O)[C@@H](N)CCC(=O)O)C(=O)N[C@@H](CC(=O)O)C(=O)N[C@@H](CCC(=O)O)C(=O)N[C@@H](CCC(=O)O)C(=O)N[C@@H](CCC(=O)O)C(=O)N[C@@H](CC(=O)O)C(=O)N[C@H](C(=O)N1CCC[C@H]1C(=O)N[C@@H](CC(=O)O)C(=O)N[C@@H](Cc1ccc(O)cc1)C(=O)N[C@@H](C)C(=O)O)C(C)C [EMDEEEDVPDYA] (H-EMDEEEDVPDYA-OH)
- improved binding affinity (in solution) over the native epitope peptide […]: Notes: The sequence DVPDYA is the original epitope. The peptide EMDEEEDVPDYA has a 10-fold improved binding affinity (in solution) over the native epitope peptide […].
